Results deposited as PubChem BioAssay AID1259308 (NCATS, 2017).
The deposit covers about 59,000 reagents; shown is an unselected part. About 1,510 of them (2.6%) count as active. 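Calls use total luciferase alone and ignore viability, so some active siRNAs may act by altering cell number.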 Not all columns of the deposit are shown.

Aim: 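Knock-downs that increase output of a recombinant reporter protein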 (primary screen)
Cell system: human HEK293 embryonic kidney cells stably expressing firefly luciferase (HEK-CMV-Luc2-Hygro)
Reagent: single siRNA against human genes, 0.8 pmol siRNA per well
Time to read-out: 72 h
Detection: 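Luciferase light (ONE-Glo) measured on one replicate plate set and viability (CellTiter-Glo) on the other, scaled to a negative control siRNA, with robust z-scores and luciferase per cell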
Scale: total luciferase, z-score: higher = more reporter protein produced
Call rule: 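An siRNA counts as active if its total luciferase robust z-score exceeds 3; genes with two or more such siRNAs out of three were retested with fresh siRNAs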
Meaning of the calls: active = raised luciferase; inactive = no rise

gene knocked down	PubChem SID	total luciferase, z-score	call
ANGPTL5 (GeneID 253935)	SID160762118	0.268	inactive
ANGPTL5 (GeneID 253935)	SID160762119	-0.579	inactive
ANGPTL5 (GeneID 253935)	SID160762120	-0.825	inactive
AGXT2 (GeneID 64902)	SID160748126	0.000382	inactive
AGXT2 (GeneID 64902)	SID160748127	0.785	inactive
AGXT2 (GeneID 64902)	SID160748128	0.455	inactive
TAF6 (GeneID 6878)	SID160717661	-0.403	inactive
TAF6 (GeneID 6878)	SID160717662	-1.77	inactive
TAF6 (GeneID 6878)	SID160717663	0.264	inactive
OR5AU1 (GeneID 390445)	SID160766524	0.49	inactive
OR5AU1 (GeneID 390445)	SID160766525	-3.36	inactive
OR5AU1 (GeneID 390445)	SID160766526	1.64	inactive
WRAP53 (GeneID 55135)	SID160743026	1.11	inactive
WRAP53 (GeneID 55135)	SID160743027	-2.34	inactive
WRAP53 (GeneID 55135)	SID160743028	-1.05	inactive

4 entries from above in another layout.
OR5AU1 (GeneID 390445) [SID160766526] | total luciferase, z-score: 1.64; call: inactive
WRAP53 (GeneID 55135) [SID160743026] | total luciferase, z-score: 1.11; call: inactive
WRAP53 (GeneID 55135) [SID160743027] | total luciferase, z-score: -2.34; call: inactive
WRAP53 (GeneID 55135) [SID160743028] | total luciferase, z-score: -1.05; call: inactive

Next results:
gene knocked down	PubChem SID	total luciferase, z-score	call
P4HA1 (GeneID 5033)	SID160731322	-0.717	inactive
P4HA1 (GeneID 5033)	SID160778511	0.863	inactive
P4HA1 (GeneID 5033)	SID160778512	-1.03	inactive
ZKSCAN2 (GeneID 342357)	SID160764600	-0.0227	inactive
ZKSCAN2 (GeneID 342357)	SID160764601	0.0707	inactive
ZKSCAN2 (GeneID 342357)	SID160764602	1.07	inactive
LILRA3 (GeneID 11026)	SID160729776	-1.16	inactive
LILRA3 (GeneID 11026)	SID160729777	0.295	inactive
LILRA3 (GeneID 11026)	SID160729778	0.509	inactive
ATPSCKMT (GeneID 134145)	SID160732482	-1.54	inactive
ATPSCKMT (GeneID 134145)	SID160757305	-0.865	inactive
ATPSCKMT (GeneID 134145)	SID160757306	-1.68	inactive
LOC401589 (GeneID 401589)	SID160767347	0.503	inactive
LOC401589 (GeneID 401589)	SID160767348	-0.0455	inactive
LOC401589 (GeneID 401589)	SID160767349	1.14	inactive
BRSK1 (GeneID 84446)	SID160752264	0.848	inactive
BRSK1 (GeneID 84446)	SID160752265	2.04	inactive
BRSK1 (GeneID 84446)	SID160752266	-1	inactive
FLII (GeneID 2314)	SID160766403	-1.68	inactive
FLII (GeneID 2314)	SID160766409	0.122	inactive
FLII (GeneID 2314)	SID160766419	0.169	inactive
TRMT5 (GeneID 57570)	SID160746299	0.443	inactive
TRMT5 (GeneID 57570)	SID160746300	-0.365	inactive
TRMT5 (GeneID 57570)	SID160746301	-0.559	inactive
